Results are given in words; binding and its absence hold for the method and conditions named. In cells and extracts the contact can be indirect. Binding calls can cover weak binding; strength is not graded here. Where a sequence is shown, tags or fusion partners need not be part of it.
Each substance was assayed against T1, Flag-STING (stimulator of interferon genes) (UniProt Q3TBT3) (assay: co-IP; RAW264.7 cells co-transfected by electroporation with HA-ROP5 (or truncations) and Flag-tagged host protein plasmids; lysed at 24 hpt in RIPA buffer; rabbit antibodies (1 ug) 1 h at 4 °C, Protein A/G PLUS-Agarose overnight; washed at least 6 times with RIPA; Western blot).
T1 sequence: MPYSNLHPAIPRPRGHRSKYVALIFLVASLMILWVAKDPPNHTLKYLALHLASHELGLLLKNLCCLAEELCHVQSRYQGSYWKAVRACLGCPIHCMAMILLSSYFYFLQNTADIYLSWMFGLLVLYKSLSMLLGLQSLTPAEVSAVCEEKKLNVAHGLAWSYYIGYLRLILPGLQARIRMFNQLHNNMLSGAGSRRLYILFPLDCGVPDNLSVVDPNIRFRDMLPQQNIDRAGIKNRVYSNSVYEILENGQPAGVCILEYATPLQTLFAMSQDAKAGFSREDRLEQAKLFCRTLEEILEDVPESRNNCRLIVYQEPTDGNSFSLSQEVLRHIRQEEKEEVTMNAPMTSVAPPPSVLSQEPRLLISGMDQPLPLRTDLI
For “HA-ROP5ΔPD1 (ROP5 lacking predicted domain 1) (Toxoplasma gondii (PRU strain, type II)) (domain or fragment)”, the binding was “binds”. For “HA-ROP5ΔPD2 (ROP5 lacking predicted domain 2) (Toxoplasma gondii (PRU strain, type II)) (domain or fragment)”, the binding was “no binding”. “HA-ROP5ΔPD3 (ROP5 lacking predicted domain 3) (Toxoplasma gondii (PRU strain, type II)) (domain or fragment)” was tested, and the binding was “binds”. “HA-ROP5ΔPD4 (ROP5 lacking predicted domain 4) (Toxoplasma gondii (PRU strain, type II)) (domain or fragment)” was tested, and the binding was “binds”.

Reference: paper PMC11508707
